Data as given in paper PMC12780140, “Structural basis of sodium ion-dependent carnitine transport by OCTN2” (Nature Communications, 2025).

Target: T1, OCTN2 (novel organic cation transporter 2) (Homo sapiens, UniProt O76082)
T1 construct: gene SLC22A5
T1 sequence (O76082 1-557): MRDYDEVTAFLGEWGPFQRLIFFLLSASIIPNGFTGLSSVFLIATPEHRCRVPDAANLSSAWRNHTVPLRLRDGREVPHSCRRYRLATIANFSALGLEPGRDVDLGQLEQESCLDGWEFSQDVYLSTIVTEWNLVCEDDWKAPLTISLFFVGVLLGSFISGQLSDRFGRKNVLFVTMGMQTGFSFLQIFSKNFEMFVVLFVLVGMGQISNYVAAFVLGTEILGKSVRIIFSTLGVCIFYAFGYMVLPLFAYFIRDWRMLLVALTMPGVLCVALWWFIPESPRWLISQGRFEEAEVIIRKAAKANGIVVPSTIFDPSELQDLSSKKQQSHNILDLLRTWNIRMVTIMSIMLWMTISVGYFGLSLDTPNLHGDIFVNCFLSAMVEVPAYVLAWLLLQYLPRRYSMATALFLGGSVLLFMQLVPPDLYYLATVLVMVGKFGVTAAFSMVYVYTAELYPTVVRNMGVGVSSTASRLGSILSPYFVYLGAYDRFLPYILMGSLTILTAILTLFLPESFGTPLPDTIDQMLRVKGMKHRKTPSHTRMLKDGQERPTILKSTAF
Experiment: cell-based

Compound: CC(C)[N+]1(C)C2CCC1CC(OC(=O)C(CO)c1ccccc1)C2 (stereo not shown) [ipratropium]
- IC50: 615 ± 175 µM
